# Assay results reported in the supplement of paper PMC8728848.
# This is one part of the list.
# B1: KCR (Mus musculus), P70194 (protein)
# chain: MKEAELNRDMARYCTDNQCVSLQPQGLGPKSAALMAPRTLRHVQVILALMVVTVIFSLLALFVVASQPWRPEWNKEPPSLLLRGSNNSGHDNHSQFVRETEMQVAIQRLRDYEENSSSCHKEVQILKYQMDNVSSLVQLLGSHLEDVNADILQTKDVLKESGALALETQALRSSLEVASADIHSLRGDLEKANAMTSQTRGLLKSSTENTSAELHVLGRGLEEAQSEIQALRGSLQSANDLSSQTQGFLQHSMDNISAQIQTVRDGMERAGEKMNSLKKELETLTAQTQKANGHLEQTDAQIQGLKAELKSTSSLNSRIEVVNGQMKDASRELQTLRRDLSDVSALKSNVQMLQSNLQRAKTEMQTLKADLQATKALTAKIQGEQNRLGALQEAVAAQKQEQKTQNQVLQLIAQNWKYFNGNFYYFSRDKKPWREAEKFCTSQGAHLASVTSQEEQAFLVQTTSSGDHWIGLTDQGTEGIWRWVDGTPFNNAQSKGFWGKNQPDNWRHRNGEREDCVHVRQQWNDMACGSSYPWVCKKSTGWSAARVG
# How the values were obtained:
# Experiment in all cases: glycan array binding signal (z-score within array); higher = stronger binding
# Conditions in all cases: glycan notation: IUPAC condensed, linker removed
# Fuc(a1-2)Gal = target: Fuc(a1-2)Gal
# Outline: (§1)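 Glycan array data were curated from 3228 arrays in the Consortium for Functional Glycomics database and kept only where the protein sequence was available. Glycan names were converted to IUPAC-condensed notation, and columns mapping to the same glycan were averaged. The binding signal is a within-array Z-score, averaged across arrays of the same protein sequence at different concentrations or buffers and across linkers. Negative Z-scores can be read as non-binding.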
# Fuc(a1-2)Gal(b1-3)GalNAc = target: Fuc(a1-2)Gal(b1-3)GalNAc
# Outline: as §1
# [1] = target: Fuc(a1-2)Gal(b1-3)GalNAc(b1-3)Gal
# Outline: as §1
# [2] = target: Fuc(a1-2)Gal(b1-3)GalNAc(b1-3)Gal(a1-4)Gal(b1-4)Glc
# Outline: as §1
# [3] = target: Fuc(a1-2)Gal(b1-3)GalNAc(b1-3)Gal(b1-4)Glc
# Outline: as §1
# [4] = target: Fuc(a1-2)Gal(b1-3)GalNAc(b1-4)[Neu5Ac(a2-3)]Gal(b1-4)Glc
# Outline: as §1
# [5] = target: Fuc(a1-2)Gal(b1-3)[Fuc(a1-4)]GlcNAc
# Outline: as §1
# Fuc(a1-2)Gal(b1-4)Glc = target: Fuc(a1-2)Gal(b1-4)Glc
# Outline: as §1
# Fuc(a1-2)Gal(b1-4)Glc6S = target: Fuc(a1-2)Gal(b1-4)Glc6S
# Outline: as §1
# Fuc(a1-2)Gal(b1-4)GlcNAc = target: Fuc(a1-2)Gal(b1-4)GlcNAc
# Outline: as §1
# [6] = target: Fuc(a1-2)Gal(b1-4)GlcNAc(b1-3)Gal(b1-4)GlcNAc
# Outline: as §1
# [7] = target: Fuc(a1-2)Gal(b1-4)GlcNAc(b1-3)Gal(b1-4)GlcNAc(b1-3)Gal(b1-4)GlcNAc
# Outline: as §1
# [8] = target: Fuc(a1-2)Gal(b1-4)GlcNAc6S
# Outline: as §1
# [9] = target: Fuc(a1-2)Gal(b1-4)[Fuc(a1-3)]GalNAc(b1-3)Gal(b1-4)[Fuc(a1-3)]GlcNAc
# Outline: as §1
# [10] = target: Fuc(a1-2)Gal(b1-4)[Fuc(a1-3)]GalNAc(b1-3)Gal(b1-4)[Fuc(a1-3)]GlcNAc(b1-3)Gal(b1-4)[Fuc(a1-3)]GalNAc
# Outline: as §1
# [11] = target: Fuc(a1-2)Gal(b1-4)[Fuc(a1-3)]GlcNAc
# Outline: as §1
# Fuc(a1-2)Gal6S(b1-4)Glc = target: Fuc(a1-2)Gal6S(b1-4)Glc
# Outline: as §1
# [12] = target: Fuc(a1-2)Gal6S(b1-4)Glc6S
# Outline: as §1
# [13] = target: Fuc(a1-2)Gal6S(b1-4)GlcNAc
# Outline: as §1
# Fuc(a1-2)GlcNAc = target: Fuc(a1-2)GlcNAc
# Outline: as §1
# Fuc(a1-2)[Gal(a1-3)]Gal = target: Fuc(a1-2)[Gal(a1-3)]Gal
# Outline: as §1
# [14] = target: Fuc(a1-2)[Gal(a1-3)]Gal(b1-3)GlcNAc
# Outline: as §1
# [15] = target: Fuc(a1-2)[Gal(a1-3)]Gal(b1-4)Glc
# Outline: as §1
# [16] = target: Fuc(a1-2)[Gal(a1-3)]Gal(b1-4)GlcNAc
# Outline: as §1
# [17] = target: Fuc(a1-2)[Gal(a1-3)]Gal(b1-4)[Fuc(a1-3)]GlcNAc
# Outline: as §1
# [18] = target: Fuc(a1-2)[Gal(a1-4)]Gal(b1-4)GalNAc
# Outline: as §1
# [19] = target: Fuc(a1-2)[GalNAc(a1-3)]Gal
# Outline: as §1
# [20] = target: Fuc(a1-2)[GalNAc(a1-3)]Gal(b1-3)GlcNAc
# Outline: as §1
# [21] = target: Fuc(a1-2)[GalNAc(a1-3)]Gal(b1-4)Glc
# Outline: as §1
# [22] = target: Fuc(a1-2)[GalNAc(a1-3)]Gal(b1-4)GlcNAc
# Outline: as §1
# [23] = target: Fuc(a1-2)[GalNAc(a1-3)]Gal(b1-4)[Fuc(a1-3)]GlcNAc
# Outline: as §1
# [24] = target: Fuc(a1-2)[GalNAc(a1-4)]Gal(b1-4)GlcNAc
# Outline: as §1
# Fuc(a1-3)GlcNAc = target: Fuc(a1-3)GlcNAc
# Outline: as §1
# [25] = target: Fuc(a1-3)[Gal(b1-4)]Glc6S
# Outline: as §1
# [26] = target: Fuc(a1-3)[Gal(b1-4)]GlcNAc
# Outline: as §1
# [27] = target: Fuc(a1-3)[Gal(b1-4)]GlcNAc(b1-3)Gal(b1-3)[Fuc(a1-4)]GlcNAc
# Outline: as §1
# [28] = target: Fuc(a1-3)[Gal(b1-4)]GlcNAc(b1-4)Gal(b1-4)[Fuc(a1-3)]GlcNAc
# Outline: as §1
# [29] = target: Fuc(a1-3)[Gal(b1-4)]GlcNAc(b1-4)Gal(b1-4)[Fuc(a1-3)]GlcNAc(b1-4)Gal(b1-4)[Fuc(a1-3)]GlcNAc
# Outline: as §1
# [30] = target: Fuc(a1-3)[Gal(b1-4)]GlcNAc6S
# Outline: as §1
# [31] = target: Fuc(a1-3)[Gal3S(b1-4)]Glc
# Outline: as §1
# [32] = target: Fuc(a1-3)[Gal3S(b1-4)]Glc6S
# Outline: as §1
# [33] = target: Fuc(a1-3)[Gal3S(b1-4)]GlcNAc
# Outline: as §1
# [34] = target: Fuc(a1-3)[Gal3S(b1-4)]GlcNAc6S
# Outline: as §1
# [35] = target: Fuc(a1-3)[GalNAc(b1-4)]Gal(b1-4)GlcNAc
# Outline: as §1
# Fuc(a1-4)GlcNAc = target: Fuc(a1-4)GlcNAc
# Outline: as §1
# Fuc(b1-3)GlcNAc = target: Fuc(b1-3)GlcNAc
# Outline: as §1
# Gal(a1-2)Gal = target: Gal(a1-2)Gal
# Outline: as §1
# Gal(a1-3)Gal = target: Gal(a1-3)Gal
# Outline: as §1
# Gal(a1-3)Gal(b1-3)Glc = target: Gal(a1-3)Gal(b1-3)Glc
# Outline: as §1
# Gal(a1-3)Gal(b1-3)GlcNAc = target: Gal(a1-3)Gal(b1-3)GlcNAc
# Outline: as §1
# Gal(a1-3)Gal(b1-4)GlcNAc = target: Gal(a1-3)Gal(b1-4)GlcNAc
# Outline: as §1
# [36] = target: Gal(a1-3)Gal(b1-4)[Fuc(a1-3)]GalNAc
# Outline: as §1
# Gal(a1-3)GlcNAc = target: Gal(a1-3)GlcNAc
# Outline: as §1
# [37] = target: Gal(a1-3)[Gal(a1-4)]Gal(b1-4)GlcNAc
# Outline: as §1
# Gal(a1-4)Gal(b1-4)Gal = target: Gal(a1-4)Gal(b1-4)Gal
# Outline: as §1
# Gal(a1-4)Gal(b1-4)GalNAc = target: Gal(a1-4)Gal(b1-4)GalNAc
# Outline: as §1
# Gal(a1-4)GlcNAc = target: Gal(a1-4)GlcNAc
# Outline: as §1
# Gal(a1-6)Glc = target: Gal(a1-6)Glc
# Outline: as §1
# Gal(b1-2)Gal = target: Gal(b1-2)Gal
# Outline: as §1
# Gal(b1-3)Gal = target: Gal(b1-3)Gal
# Outline: as §1
binder,measurement,setting,value
B1,glycan array binding signal (z-score),Fuc(a1-2)Gal,0.24
same,glycan array binding signal (z-score),Fuc(a1-2)Gal(b1-3)GalNAc,-0.72
same,glycan array binding signal (z-score),[1],-0.278
same,glycan array binding signal (z-score),[2],-0.651
same,glycan array binding signal (z-score),[3],-0.816
same,glycan array binding signal (z-score),[4],-0.426
same,glycan array binding signal (z-score),[5],-0.875
same,glycan array binding signal (z-score),Fuc(a1-2)Gal(b1-4)Glc,-0.826
same,glycan array binding signal (z-score),Fuc(a1-2)Gal(b1-4)Glc6S,0.282
same,glycan array binding signal (z-score),Fuc(a1-2)Gal(b1-4)GlcNAc,-0.794
same,glycan array binding signal (z-score),[6],-0.635
same,glycan array binding signal (z-score),[7],-0.548
same,glycan array binding signal (z-score),[8],-0.001
same,glycan array binding signal (z-score),[9],-0.211
same,glycan array binding signal (z-score),[10],-0.558
same,glycan array binding signal (z-score),[11],-0.493
same,glycan array binding signal (z-score),Fuc(a1-2)Gal6S(b1-4)Glc,-0.232
same,glycan array binding signal (z-score),[12],1.85
same,glycan array binding signal (z-score),[13],0.367
same,glycan array binding signal (z-score),Fuc(a1-2)GlcNAc,-0.506
same,glycan array binding signal (z-score),Fuc(a1-2)[Gal(a1-3)]Gal,-0.369
same,glycan array binding signal (z-score),[14],-0.474
same,glycan array binding signal (z-score),[15],-0.262
same,glycan array binding signal (z-score),[16],-0.609
same,glycan array binding signal (z-score),[17],-0.295
same,glycan array binding signal (z-score),[18],-0.36
same,glycan array binding signal (z-score),[19],1.28
same,glycan array binding signal (z-score),[20],-0.414
same,glycan array binding signal (z-score),[21],-0.481
same,glycan array binding signal (z-score),[22],-0.663
same,glycan array binding signal (z-score),[23],-0.495
same,glycan array binding signal (z-score),[24],-0.077
same,glycan array binding signal (z-score),Fuc(a1-3)GlcNAc,-0.589
same,glycan array binding signal (z-score),[25],0.736
same,glycan array binding signal (z-score),[26],1.71
same,glycan array binding signal (z-score),[27],0.416
same,glycan array binding signal (z-score),[28],2.14
same,glycan array binding signal (z-score),[29],4.39
same,glycan array binding signal (z-score),[30],3.94
same,glycan array binding signal (z-score),[31],-0.41
same,glycan array binding signal (z-score),[32],0.437
same,glycan array binding signal (z-score),[33],-0.102
same,glycan array binding signal (z-score),[34],0.896
same,glycan array binding signal (z-score),[35],3.06
same,glycan array binding signal (z-score),Fuc(a1-4)GlcNAc,-0.434
same,glycan array binding signal (z-score),Fuc(b1-3)GlcNAc,-0.284
same,glycan array binding signal (z-score),Gal(a1-2)Gal,-0.57
same,glycan array binding signal (z-score),Gal(a1-3)Gal,0.035
same,glycan array binding signal (z-score),Gal(a1-3)Gal(b1-3)Glc,-0.236
same,glycan array binding signal (z-score),Gal(a1-3)Gal(b1-3)GlcNAc,-0.075
same,glycan array binding signal (z-score),Gal(a1-3)Gal(b1-4)GlcNAc,0.005
same,glycan array binding signal (z-score),[36],0.117
same,glycan array binding signal (z-score),Gal(a1-3)GlcNAc,-0.138
same,glycan array binding signal (z-score),[37],0.524
same,glycan array binding signal (z-score),Gal(a1-4)Gal(b1-4)Gal,-0.026
same,glycan array binding signal (z-score),Gal(a1-4)Gal(b1-4)GalNAc,-0.356
same,glycan array binding signal (z-score),Gal(a1-4)GlcNAc,0.207
same,glycan array binding signal (z-score),Gal(a1-6)Glc,0.312
same,glycan array binding signal (z-score),Gal(b1-2)Gal,-0.225
same,glycan array binding signal (z-score),Gal(b1-3)Gal,0.012
